From paper PMC6071992 come the findings set out here.

Amino acid sequences for entries named in this document (tags omitted).
UniProt Q9P2D1: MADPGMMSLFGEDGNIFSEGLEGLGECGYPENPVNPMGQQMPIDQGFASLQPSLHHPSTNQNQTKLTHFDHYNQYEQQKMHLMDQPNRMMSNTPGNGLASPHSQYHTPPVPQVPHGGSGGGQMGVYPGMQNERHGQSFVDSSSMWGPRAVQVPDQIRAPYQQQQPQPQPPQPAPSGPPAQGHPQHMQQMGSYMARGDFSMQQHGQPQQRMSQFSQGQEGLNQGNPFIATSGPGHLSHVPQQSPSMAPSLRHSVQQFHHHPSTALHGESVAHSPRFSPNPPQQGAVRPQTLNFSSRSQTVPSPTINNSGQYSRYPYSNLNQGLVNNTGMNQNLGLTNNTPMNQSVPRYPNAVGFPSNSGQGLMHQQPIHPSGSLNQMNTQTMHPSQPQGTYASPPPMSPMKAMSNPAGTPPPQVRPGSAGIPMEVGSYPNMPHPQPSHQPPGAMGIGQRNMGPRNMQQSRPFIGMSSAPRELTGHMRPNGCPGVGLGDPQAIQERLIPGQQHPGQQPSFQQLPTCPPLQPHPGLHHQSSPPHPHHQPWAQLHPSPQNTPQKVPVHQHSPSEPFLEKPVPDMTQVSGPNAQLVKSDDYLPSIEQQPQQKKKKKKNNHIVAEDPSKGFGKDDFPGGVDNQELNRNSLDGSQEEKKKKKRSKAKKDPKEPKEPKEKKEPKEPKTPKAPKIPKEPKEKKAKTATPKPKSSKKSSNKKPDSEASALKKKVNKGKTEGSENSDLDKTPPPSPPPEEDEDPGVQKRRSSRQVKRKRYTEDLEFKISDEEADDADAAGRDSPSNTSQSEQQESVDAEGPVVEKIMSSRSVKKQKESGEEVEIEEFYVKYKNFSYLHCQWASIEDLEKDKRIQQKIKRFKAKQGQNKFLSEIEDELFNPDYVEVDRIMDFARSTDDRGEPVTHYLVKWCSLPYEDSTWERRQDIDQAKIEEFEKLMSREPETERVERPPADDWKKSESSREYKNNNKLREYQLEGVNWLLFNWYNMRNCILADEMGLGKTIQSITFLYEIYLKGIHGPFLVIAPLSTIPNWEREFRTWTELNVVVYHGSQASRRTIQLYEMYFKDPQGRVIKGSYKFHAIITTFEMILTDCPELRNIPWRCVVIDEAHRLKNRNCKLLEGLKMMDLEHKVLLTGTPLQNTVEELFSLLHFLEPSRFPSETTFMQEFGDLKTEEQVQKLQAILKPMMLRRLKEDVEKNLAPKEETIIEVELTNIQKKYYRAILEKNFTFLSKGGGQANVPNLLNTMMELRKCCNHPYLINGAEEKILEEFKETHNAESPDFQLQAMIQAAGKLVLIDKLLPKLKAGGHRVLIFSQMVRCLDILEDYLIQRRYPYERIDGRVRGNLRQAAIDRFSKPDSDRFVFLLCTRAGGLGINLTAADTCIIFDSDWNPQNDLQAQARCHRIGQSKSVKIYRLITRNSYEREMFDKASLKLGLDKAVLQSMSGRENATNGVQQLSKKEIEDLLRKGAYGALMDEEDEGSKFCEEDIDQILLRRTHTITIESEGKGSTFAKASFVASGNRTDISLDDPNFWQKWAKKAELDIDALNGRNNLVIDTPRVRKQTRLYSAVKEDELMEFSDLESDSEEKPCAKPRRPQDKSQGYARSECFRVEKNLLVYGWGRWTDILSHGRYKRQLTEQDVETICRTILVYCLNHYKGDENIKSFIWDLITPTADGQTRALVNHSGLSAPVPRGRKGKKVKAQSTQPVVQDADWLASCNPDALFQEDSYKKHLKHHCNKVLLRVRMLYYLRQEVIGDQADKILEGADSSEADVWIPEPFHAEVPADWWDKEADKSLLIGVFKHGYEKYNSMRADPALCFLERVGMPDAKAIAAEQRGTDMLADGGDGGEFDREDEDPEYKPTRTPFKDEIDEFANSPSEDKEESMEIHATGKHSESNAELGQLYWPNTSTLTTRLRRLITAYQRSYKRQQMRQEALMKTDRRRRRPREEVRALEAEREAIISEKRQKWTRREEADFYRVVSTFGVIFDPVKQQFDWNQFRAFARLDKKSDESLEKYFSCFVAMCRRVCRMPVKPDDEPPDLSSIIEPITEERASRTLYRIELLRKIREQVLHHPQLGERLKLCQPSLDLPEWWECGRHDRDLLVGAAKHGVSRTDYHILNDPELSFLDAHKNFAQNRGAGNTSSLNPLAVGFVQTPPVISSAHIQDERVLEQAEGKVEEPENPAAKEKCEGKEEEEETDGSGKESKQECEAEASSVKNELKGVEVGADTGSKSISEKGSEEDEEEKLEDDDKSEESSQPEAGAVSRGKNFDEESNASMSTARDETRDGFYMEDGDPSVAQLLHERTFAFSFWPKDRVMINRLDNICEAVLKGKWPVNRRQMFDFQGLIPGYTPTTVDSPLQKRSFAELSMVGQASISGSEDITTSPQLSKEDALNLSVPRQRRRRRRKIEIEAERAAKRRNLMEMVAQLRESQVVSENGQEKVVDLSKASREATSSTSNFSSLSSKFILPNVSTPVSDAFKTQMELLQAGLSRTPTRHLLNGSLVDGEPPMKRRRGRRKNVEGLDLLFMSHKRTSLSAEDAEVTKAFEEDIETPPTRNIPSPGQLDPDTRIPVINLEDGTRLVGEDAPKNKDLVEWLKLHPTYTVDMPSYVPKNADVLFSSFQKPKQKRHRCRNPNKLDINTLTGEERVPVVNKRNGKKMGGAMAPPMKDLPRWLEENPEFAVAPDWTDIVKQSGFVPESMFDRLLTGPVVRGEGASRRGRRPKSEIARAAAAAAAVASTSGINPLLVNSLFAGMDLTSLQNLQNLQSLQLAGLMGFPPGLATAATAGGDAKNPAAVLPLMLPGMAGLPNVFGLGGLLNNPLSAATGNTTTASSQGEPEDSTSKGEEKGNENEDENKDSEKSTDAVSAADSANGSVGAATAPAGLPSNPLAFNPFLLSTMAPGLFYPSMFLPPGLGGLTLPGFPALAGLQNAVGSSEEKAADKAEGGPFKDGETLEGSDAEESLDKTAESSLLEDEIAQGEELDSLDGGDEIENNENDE
UniProt Q9ULW0: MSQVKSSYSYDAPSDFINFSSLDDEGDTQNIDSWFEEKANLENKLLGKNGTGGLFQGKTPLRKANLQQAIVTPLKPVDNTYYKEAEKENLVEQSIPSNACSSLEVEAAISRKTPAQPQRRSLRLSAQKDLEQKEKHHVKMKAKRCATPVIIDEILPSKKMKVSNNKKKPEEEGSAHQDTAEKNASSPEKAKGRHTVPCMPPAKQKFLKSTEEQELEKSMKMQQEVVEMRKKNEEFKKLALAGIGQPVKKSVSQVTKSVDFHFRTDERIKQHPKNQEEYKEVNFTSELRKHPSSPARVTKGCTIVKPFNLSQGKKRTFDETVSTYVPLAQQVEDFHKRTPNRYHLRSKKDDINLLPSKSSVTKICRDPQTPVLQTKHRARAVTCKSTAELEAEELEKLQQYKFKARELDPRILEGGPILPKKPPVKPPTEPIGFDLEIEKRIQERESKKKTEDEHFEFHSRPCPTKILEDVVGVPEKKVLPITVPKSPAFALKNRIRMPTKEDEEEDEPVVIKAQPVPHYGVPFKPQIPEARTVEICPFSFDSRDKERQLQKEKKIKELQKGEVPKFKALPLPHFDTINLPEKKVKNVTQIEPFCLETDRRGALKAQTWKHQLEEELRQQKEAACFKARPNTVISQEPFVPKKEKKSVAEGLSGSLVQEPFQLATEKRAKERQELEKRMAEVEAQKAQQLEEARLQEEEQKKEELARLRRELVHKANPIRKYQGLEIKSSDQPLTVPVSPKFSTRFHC

Read-outs that look alike come from different tables or passages of the source. Results are given in words; binding and its absence hold for the method and conditions named. For some of these results: Binding can be weak; no strength is given. For some of these results: Tags and fused reporters may be left off the sequences shown. For some of these results: Binding seen in cells or lysates may run through a third protein.

Assay [1] addresses T1, GST-TBX18 N-terminal region (aa 1-157) (mouse) (UniProt Q9EPZ6).
T1 sequence: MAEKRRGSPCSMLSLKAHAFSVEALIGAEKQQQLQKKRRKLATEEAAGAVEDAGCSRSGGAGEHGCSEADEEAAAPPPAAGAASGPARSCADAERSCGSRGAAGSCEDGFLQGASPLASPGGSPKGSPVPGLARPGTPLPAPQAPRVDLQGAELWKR
Description: pull-down; GST-TBX18 domain fusion proteins on glutathione beads incubated 2 h with NP-40 extracts of 293 cells transfected with MYC- or HA-tagged candidates; washed 3 times with pull-down buffer (20 mM HEPES pH 7.9, 100 mM NaCl, 10 mM KCl, 5 mM MgCl2, 0.5 mM EDTA, 5% glycerol, 0.05% Triton X-100, 1 mM DTT); Western blot against the tags; only the target purified.

Assay [2] deals with T2, GST-TBX18 T-box (aa 148-345) (mouse) (UniProt Q9EPZ6).
T2 sequence: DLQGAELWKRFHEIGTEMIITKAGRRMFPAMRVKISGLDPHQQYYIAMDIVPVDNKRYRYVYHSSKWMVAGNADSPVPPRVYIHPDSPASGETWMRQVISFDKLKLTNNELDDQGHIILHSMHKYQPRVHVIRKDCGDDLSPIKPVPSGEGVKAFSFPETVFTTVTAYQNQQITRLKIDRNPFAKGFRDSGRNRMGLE
Described as above.

The target in assay [3] is MYC-tagged TBX18ΔNLS (mouse) (UniProt Q9EPZ6). As to the kind of experiment: nuclear recruitment assay (immunofluorescence); 293 cells co-transfected with TBX18ΔNLS (cytoplasmic) and a nuclear candidate protein; nuclear translocation of TBX18ΔNLS read by immunofluorescence against the tags after 2 days.
Assay [4] deals with HA-tagged TBX18 lacking the nuclear localization signal (mouse) (UniProt Q9EPZ6). The assay is described as above.
The target in assay [5] is T3, GST-TBX18 C-terminal region (aa 336-613) (mouse) (UniProt Q9EPZ6).
T3 sequence: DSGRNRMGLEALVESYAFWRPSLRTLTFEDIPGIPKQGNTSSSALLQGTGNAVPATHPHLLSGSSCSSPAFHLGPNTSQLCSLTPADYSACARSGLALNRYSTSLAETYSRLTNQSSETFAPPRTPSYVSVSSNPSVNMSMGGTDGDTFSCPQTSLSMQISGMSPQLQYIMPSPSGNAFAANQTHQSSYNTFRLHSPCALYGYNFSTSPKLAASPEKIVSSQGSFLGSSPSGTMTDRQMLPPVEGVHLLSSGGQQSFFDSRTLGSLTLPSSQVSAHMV
As to the kind of experiment: pull-down; GST-TBX18 domain fusion proteins on glutathione beads incubated 2 h with NP-40 extracts of 293 cells transfected with MYC- or HA-tagged candidates; washed 3 times with pull-down buffer (20 mM HEPES pH 7.9, 100 mM NaCl, 10 mM KCl, 5 mM MgCl2, 0.5 mM EDTA, 5% glycerol, 0.05% Triton X-100, 1 mM DTT); Western blot against the tags; only the target purified. For orientation: In western blotting, separated proteins are transferred to a membrane and probed.

Assay [6] addresses T4, GST-TBX18 N-terminal plus T-box (aa 1-345) (mouse) (UniProt Q9EPZ6).
T4 sequence: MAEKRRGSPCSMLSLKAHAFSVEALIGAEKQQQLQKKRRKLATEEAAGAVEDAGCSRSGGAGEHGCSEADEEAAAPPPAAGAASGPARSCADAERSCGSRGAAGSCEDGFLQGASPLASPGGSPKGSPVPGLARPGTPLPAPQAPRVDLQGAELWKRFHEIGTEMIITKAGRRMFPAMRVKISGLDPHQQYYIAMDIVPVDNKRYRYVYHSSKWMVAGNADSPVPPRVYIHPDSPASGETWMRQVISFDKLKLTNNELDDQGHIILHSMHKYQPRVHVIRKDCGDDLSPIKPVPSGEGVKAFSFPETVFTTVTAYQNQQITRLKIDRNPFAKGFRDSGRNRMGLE
The assay is described as above.

For assay [7], the target named is T5, HA-tagged full-length TBX18 protein (mouse) (UniProt Q9EPZ6).
T5 sequence: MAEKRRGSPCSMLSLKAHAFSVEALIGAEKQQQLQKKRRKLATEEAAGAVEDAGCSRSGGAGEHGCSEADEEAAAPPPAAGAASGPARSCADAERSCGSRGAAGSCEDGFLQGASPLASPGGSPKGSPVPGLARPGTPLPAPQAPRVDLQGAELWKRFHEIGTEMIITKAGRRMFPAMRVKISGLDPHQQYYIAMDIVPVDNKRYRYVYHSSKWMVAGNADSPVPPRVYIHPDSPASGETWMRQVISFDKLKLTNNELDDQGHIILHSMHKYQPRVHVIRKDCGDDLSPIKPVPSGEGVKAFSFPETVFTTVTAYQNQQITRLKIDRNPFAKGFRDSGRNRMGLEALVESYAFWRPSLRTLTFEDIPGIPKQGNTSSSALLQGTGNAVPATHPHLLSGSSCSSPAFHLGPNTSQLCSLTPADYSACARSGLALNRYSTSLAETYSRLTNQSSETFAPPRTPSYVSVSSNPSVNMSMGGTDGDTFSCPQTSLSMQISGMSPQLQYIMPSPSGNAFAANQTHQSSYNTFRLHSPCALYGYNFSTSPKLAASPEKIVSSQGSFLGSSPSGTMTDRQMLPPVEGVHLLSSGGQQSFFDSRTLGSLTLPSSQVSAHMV
As to the kind of experiment: nuclear recruitment assay (immunofluorescence); modified assay: 293 cells co-transfected with full-length (nuclear) TBX18 and a candidate that lies outside the nucleus; recruitment of the candidate into the nucleus read by immunofluorescence against the tags.

Assay [8] concerns the target HA-tagged TBX18 lacking the nuclear localization signal (mouse) (UniProt Q9EPZ6). As to the kind of experiment: nuclear recruitment assay (immunofluorescence); 293 cells co-transfected with TBX18ΔNLS (cytoplasmic) and a nuclear candidate protein; nuclear translocation of TBX18ΔNLS read by immunofluorescence against the tags after 2 days. The source holds these as a separate data set.

In the case of MYC-tagged NCOA5, the results for the binding entry in assay [1] and in assay [2] were “binds” and “binds weakly”, respectively.
Consider “HA-tagged CHD7 (from UniProt Q9P2D1 1-2997)”, for which the binding entry in assay [3] is reported as “binds”.
Turning to “MYC-tagged TPX2 (from UniProt Q9ULW0 1-747)”, in assay [4], the binding entry was “binds”.
As to MYC-tagged SSXB2, the binding result in assay [5], in assay [6], in assay [1] and in assay [2] was “no binding” throughout.
MYC-tagged IKZF2: the binding result in assay [2] is recorded as “binds”.
In the case of MYC-tagged GAR1, the binding entry in assay [1] is recorded as “binds weakly”; in assay [2] it was “binds”.
In the case of MYC-tagged SUV39H2, the binding entry in assay [5], in assay [6], in assay [1] and in assay [2] was “no binding” each time.
Consider HA-tagged SBNO2, for which, in assay [2], the binding result was “binds”.
In the case of MYC-tagged RCOR3, the binding entry was “binds” in assay [7]; “no binding” in assay [5]; “no binding” in assay [6]; “no binding” in assay [1]; “no binding” in assay [2].

B1: MYC-tagged B9D2 (protein, UniProt Q9BPU9 1-175)
chain: MAEVHVIGQIIGASGFSESSLFCKWGIHTGAAWKLLSGVREGQTQVDTPQIGDMAYWSHPIDLHFATKGLQGWPRLHFQVWSQDSFGRCQLAGYGFCHVPSSPGTHQLACPTWRPLGSWREQLARAFVGGGPQLLHGDTIYSGADRYRLHTAAGGTVHLEIGLLLRNFDRYGVEC
B1: the binding result in assay [8] is given as “binds”.
